The test has as its target T1, C-terminally V5-tagged human CNTF-R (V5-CNTF-R) (human) (UniProt P26992).
T1 sequence (looked up): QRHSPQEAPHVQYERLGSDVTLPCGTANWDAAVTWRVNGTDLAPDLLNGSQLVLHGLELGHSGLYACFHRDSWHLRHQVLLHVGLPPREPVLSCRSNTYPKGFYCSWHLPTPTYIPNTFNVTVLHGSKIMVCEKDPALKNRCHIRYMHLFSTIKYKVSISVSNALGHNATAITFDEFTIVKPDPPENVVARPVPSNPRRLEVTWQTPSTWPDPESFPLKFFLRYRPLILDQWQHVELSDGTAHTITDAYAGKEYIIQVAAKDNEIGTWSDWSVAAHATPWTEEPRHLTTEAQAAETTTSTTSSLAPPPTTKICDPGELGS
In words: reciprocal co-immunoprecipitation from transfected COS7 cells, immunoblot. Background: A western blot detects proteins with antibodies after separation by electrophoresis.

The chains behind the UniProt entries cited, without tags or fusion partners. Residues count along the entry.
UniProt Q6UWB1, residues 33-636: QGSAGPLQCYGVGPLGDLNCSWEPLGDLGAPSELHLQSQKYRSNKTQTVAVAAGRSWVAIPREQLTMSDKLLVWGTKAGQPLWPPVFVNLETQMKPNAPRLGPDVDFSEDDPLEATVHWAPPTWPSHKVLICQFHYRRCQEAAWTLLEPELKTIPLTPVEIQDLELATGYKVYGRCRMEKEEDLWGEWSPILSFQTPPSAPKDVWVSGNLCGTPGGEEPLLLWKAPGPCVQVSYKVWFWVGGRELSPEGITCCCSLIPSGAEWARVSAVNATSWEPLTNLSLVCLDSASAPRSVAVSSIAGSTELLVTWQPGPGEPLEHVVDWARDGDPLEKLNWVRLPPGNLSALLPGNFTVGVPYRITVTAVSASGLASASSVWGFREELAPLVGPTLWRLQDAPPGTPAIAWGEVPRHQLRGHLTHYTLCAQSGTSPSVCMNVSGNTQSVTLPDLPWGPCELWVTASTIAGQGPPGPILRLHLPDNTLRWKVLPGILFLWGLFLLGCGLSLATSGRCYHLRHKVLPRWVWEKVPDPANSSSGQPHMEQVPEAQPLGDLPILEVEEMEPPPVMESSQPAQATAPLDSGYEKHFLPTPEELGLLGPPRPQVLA

Results are given in words; binding and its absence hold for the method and conditions named. Binding seen in cells or lysates may run through a third protein. Some binding calls cover weakened binding; strength is not graded here. Where a sequence is shown, tags or fusion partners need not be part of it.

As for “C-terminally myc-tagged human WSX-1 (mycHis-WSX-1) (from UniProt Q6UWB1 33-636) (receptor)”, the binding result is “binds”.

The values are drawn from patent publication US8173771B2, “Humanin receptor or humanin-like polypeptide receptor” (Keio Univeristy, priority 2005, dated 2012).
